Reference: article PMC7766112
These are yes or no findings as the source states them, for the method shown. Binding calls can cover weak binding; strength is not graded here. For some assays here: Binding seen in cells or lysates may run through a third protein. For some assays here: Sequences can lack the tags named with a protein. Each block holds one binder with its values, some of them ahead of it.

Tests used:
[1] = target: PsBELL1-2 transcription factor (Pisum sativum); assay: two-hybrid; GAL4-based yeast two-hybrid, pDEST22 (prey) and pDEST32 (bait) in S. cerevisiae pJ6969-4A; growth on selective media SC-LTH and SC-LTAH, serial dilutions OD600 0.1 and 0.05
[2] = target: PsBELL1-2 tagged with 6HIS (Pisum sativum); assay: co-IP; E. coli lysates (50 mM tris-HCl pH 8.0, 1% Triton X-100, 150 mM NaCl) with PsBELL1-2-6HIS and PsDELLA1-FLAG co-incubated with anti-HIS MicroBeads (µMACS) for 1 h on ice; immunoblot with anti-FLAG and anti-HIS

binding [1]: binds
B1: PsDELLA1 (LA) protein (protein, UniProt B2BA72 1-592)
chain: MKRDRQETSGGGVSSNNNNSDNIISNNFVSVRGECSSMQNNNNNGKQSLWSEEKENSGGMDELLAALGYKVRSSDMLDVAQKLEQLEMVMGSAQEEGINHLASDTVHYDPTDLYSWVQTMLTELNPSTDSQINDPLDSSSSIFNDNSQYDLSVIPGMAAYPPQSHNQNSESEGSNSNKRLKTWGSETESEDIFLPALSPPAETTRPVVLVDSQETGVRLIHTMMACADAIQRDDIKIADRLVKNIGILASSQTGAMGKVASYFAQALYRRICRVSPDETLDSSLSDALHMHFYESSPYLKFAHFTANQAILEAFAGAGSVHVIDFGLKQGMQWPALMQALALRPGGPPTFRLTGIGPPQTGNTDALQQVGWKLAQLAQTIGVQFEFRGFVCNSLADLDPNMLEIRPGEAVAVNSVFELHTMLARPGSIDKVLNTVKKINPKIVTIVEQEANHNGPVFMDRFTEALHYYSSLFDSLEGSSNSNPAGSGSSSQDLLMSELYLGRQICNVVAYEGVDRVERHETLSQWRSRMGSAGFDPVHLGSNAFKQASTLLALFAGGDGYRVEENNGCLMLGWHTRSLIATSAWKLPLSESK

binding [2]: binds
B2: PsDELLA1 tagged with FLAG (protein, UniProt B2BA72 1-592)
chain: B1 chain
